{"source": "PubChem BioAssay AID1259425 (University of Nebraska Medical Center, 2018)", "test": "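Seek colon cancer weak points whose silencing resembles KSR1 loss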 (primary screen)", "system": "HCT116 human colon cancer cells", "knock-down reagent": "siRNA pool against human genes, 50 nM siRNA", "measurement": "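After 50 nM siRNA pool, branched-DNA assay measures six marker transcripts per well, minus blank, normalised to the geometric mean of two housekeeping transcripts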", "scale": "BNIP3L mRNA: higher = more BNIP3L transcript after knockdown; NDRG1 mRNA: higher = more NDRG1 transcript after knockdown", "note": "The deposit covers about 14,000 reagents; this is a random part of them. Further read-outs or replicates are left out here. The record does not give: the time to read-out."}
{"gene knocked down": "LILRA6 (GeneID 79168)", "BNIP3L mRNA, set 1": 0.12, "NDRG1 mRNA, set 1": 0.303}
{"gene knocked down": "CDKN3 (GeneID 1033)", "BNIP3L mRNA, set 1": 0.133, "NDRG1 mRNA, set 1": 0.033}
{"gene knocked down": "GADD45GIP1 (GeneID 90480)", "BNIP3L mRNA, set 1": 0.0766, "NDRG1 mRNA, set 1": 0.0843}
{"gene knocked down": "FLNA (GeneID 2316)", "BNIP3L mRNA, set 1": 0.181, "NDRG1 mRNA, set 1": 0.241}
{"gene knocked down": "PDE4B (GeneID 5142)", "BNIP3L mRNA, set 1": 0.0668, "NDRG1 mRNA, set 1": 0.0669}
{"gene knocked down": "XBP1 (GeneID 7494)", "BNIP3L mRNA, set 1": 0.0772, "NDRG1 mRNA, set 1": 0.391}
{"gene knocked down": "LYPLA2 (GeneID 11313)", "BNIP3L mRNA, set 1": 0.0956, "NDRG1 mRNA, set 1": 0.308}
{"gene knocked down": "CXCR2 (GeneID 3579)", "BNIP3L mRNA, set 1": 0.0973, "NDRG1 mRNA, set 1": 0.132}
{"gene knocked down": "SECTM1 (GeneID 6398)", "BNIP3L mRNA, set 1": 0.123, "NDRG1 mRNA, set 1": 0.368}
{"gene knocked down": "CAB39L (GeneID 81617)", "BNIP3L mRNA, set 1": 0.0675, "NDRG1 mRNA, set 1": 0.243}
{"gene knocked down": "SLC25A20 (GeneID 788)", "BNIP3L mRNA, set 1": 0.164, "NDRG1 mRNA, set 1": 0.202}
{"gene knocked down": "ZNF2 (GeneID 7549)", "BNIP3L mRNA, set 1": 0.151, "NDRG1 mRNA, set 1": 0.239}
{"gene knocked down": "OR1A2 (GeneID 26189)", "BNIP3L mRNA, set 1": 0.259, "NDRG1 mRNA, set 1": 0.212}
{"gene knocked down": "PTBP2 (GeneID 58155)", "BNIP3L mRNA, set 1": 0.103, "NDRG1 mRNA, set 1": 0.11}
{"gene knocked down": "RPL27 (GeneID 6155)", "BNIP3L mRNA, set 1": 0.48, "NDRG1 mRNA, set 1": 1.28}
{"gene knocked down": "PCBD2 (GeneID 84105)", "BNIP3L mRNA, set 1": 0.155, "NDRG1 mRNA, set 1": 0.188}
{"gene knocked down": "KCMF1 (GeneID 56888)", "BNIP3L mRNA, set 1": 0.107, "NDRG1 mRNA, set 1": 0.326}
{"gene knocked down": "RGS11 (GeneID 8786)", "BNIP3L mRNA, set 1": 0.132, "NDRG1 mRNA, set 1": 0.312}
{"gene knocked down": "ZCCHC4 (GeneID 29063)", "BNIP3L mRNA, set 1": 0.548, "NDRG1 mRNA, set 1": 1.56}
{"gene knocked down": "ABI3 (GeneID 51225)", "BNIP3L mRNA, set 1": 0.221, "NDRG1 mRNA, set 1": 0.233}
{"gene knocked down": "NME1 (GeneID 4830)", "BNIP3L mRNA, set 1": 0.045, "NDRG1 mRNA, set 1": 0.117}
{"gene knocked down": "RAMP3 (GeneID 10268)", "BNIP3L mRNA, set 1": 0.125, "NDRG1 mRNA, set 1": 0.314}
{"gene knocked down": "LATS2 (GeneID 26524)", "BNIP3L mRNA, set 1": 0.0659, "NDRG1 mRNA, set 1": 0.0765}
{"gene knocked down": "TRIM63 (GeneID 84676)", "BNIP3L mRNA, set 1": 0.391, "NDRG1 mRNA, set 1": 0.346}
{"gene knocked down": "TESC (GeneID 54997)", "BNIP3L mRNA, set 1": 0.108, "NDRG1 mRNA, set 1": 0.708}
{"gene knocked down": "APPL1 (GeneID 26060)", "BNIP3L mRNA, set 1": 0.191, "NDRG1 mRNA, set 1": 0.412}
{"gene knocked down": "B4GALT5 (GeneID 9334)", "BNIP3L mRNA, set 1": 0.214, "NDRG1 mRNA, set 1": 0.464}
{"gene knocked down": "PSG1 (GeneID 5669)", "BNIP3L mRNA, set 1": 0.127, "NDRG1 mRNA, set 1": 0.169}

Reformatted: results already given.
gene knocked down	BNIP3L mRNA, set 1	NDRG1 mRNA, set 1
OR1A2 (GeneID 26189)	0.259	0.212
PTBP2 (GeneID 58155)	0.103	0.11
RPL27 (GeneID 6155)	0.48	1.28
PCBD2 (GeneID 84105)	0.155	0.188
